Test results taken from publication PMC10163288.
This is one part of the list.

B1: il10ra_site1_normal_mot_HHH_b1_05185_000000011_0001_22_39_H_._HHH_b1_00163_0001_0000200007_0000001_0_1_af2pred_0001 (protein)
chain: SSSSSFAERVLRLVRWLFKNNDEEAIELALKAVRDLLKKENDPRIEEILEEIEELLEELRNSSSS
B2: il10ra_site1_normal_mot_8756ee2cf497b5429c717dfc0c0bcfd6_0001_000000186_0001_1_13_H_._HHH_b1_01529_af2_0001_0000100005_0000001_0_af2pred_0001 (protein)
chain: SSSSNELLRRVQELLKEAAELDHEGNPEEAREVLEEARELAEEANNLVARAQVEFLERIVNSSSS
B3: il10ra_site1_sap_26_mot_HHH_b1_06975_af2_000000094_0001_42_56_H_._HHH_b2_02745_0001_0000200022_0000002_0_0001 (protein)
chain: SSSSSVNQRVQELLRRAFQLIREGNPEEAHELLEEIEELVEEHKNWILRYSLEALEIALRGSSSS
B4: il10ra_site1_sap_13_mot_HHH_b2_07442_000000239_0001_40_54_H_._1817edcbb30e3b4d8c1983a6c7bdefe8_0001_0001_0000400007_0000001_0_0001 (protein)
chain: SSSDDSQRVYELLREAVEALHEGDREEAEKILEEAEELVKENNNVALQMQIEFLERAIERLSSSS
B5: il10ra_site1_normal_mot_HHH_b2_03565_000000130_0001_23_39_H_._HHH_b1_02077_0001_0000100002_0000001_0_af2pred_0001 (protein)
chain: SSSSDDEEFIRLSLRFAEWLLEQGDPEAAELVLRVAERLARELGDEELLEEVERLLEELESSSSS
B6: il10ra_site1_sap_23_mot_0aa80e4383ff73b96d266796d974ca63_0001_000000257_0001_1_11_H_._HHH_b2_04732_af2_0001_0000300010_0000001_0_0001_1 (protein)
chain: SSSSDEEEKELEKLLEEAEELGNEAAFAIARLALHLLRLGRIDEEYFEIAERFIRSALNKSSSSS
B7: il10ra_site1_sap_8_mot_HHH_b2_05548_000000224_0001_41_54_H_._HHH_b1_06396_0001_0000400051_0000002_0_0001 (protein)
chain: SSSSDRRERIWELLKRALELRAEGNPEEAREVVEEAEELAEEANDMLLEYQIKFLQHAIEGSSSS
B8: il10ra_site1_normal_mot_HHH_b2_07144_000000289_0001_1_18_H_._HHH_b2_05497_0001_0000100003_0000001_0 (protein)
chain: SSSSSEESQRLYKLSRKAAELLREGDPEEAREVLEEALELAEELNNFNFLFSLRHLLRDASSSSS
B9: il10ra_site1_sap_30_mot_HHH_b2_02053_af2_000000006_0001_3_19_H_._HHH_b2_06177_0001_0000100006_0000002_0_0001_af2pred_dldesign_0_af2pred (protein)
chain: SPEIEAIRALLKENLSLACAALAKLLAESGNQEDIALARELARLLFEDPERAKELAEKLLAELAK
B10: il10ra_site1_sap_17_mot_HHH_b2_02053_af2_000000006_0001_3_19_H_._HHH_b2_00418_af2_0001_0000600027_0000001_0_0001 (protein)
chain: SSSSDELTQEVFRLLREAVELDSDGNHEEAEEVLEEAERLAKEANNVLLEIQVEFLQRLLGSSSS
B11: il10ra_site1_sap_15_mot_ems_3hM_3349_000000275_0001_25_42_H_._7f845fc392f084dc2c3019ce91433427_0001_1_0001_0000100003_0000002_0_0001_af2pred_0001 (protein)
chain: SDEWEELEELLRRLLEEAERNNDPFVKRLAHVALDLLRRATEENDEELLRAVKLALRDIEASCSS
B12: il10ra_site1_sap_23_mot_HHH_b1_02492_000000051_0001_1_21_H_._HHH_b2_05780_af2_0001_0000100001_0000001_0_0001 (protein)
chain: SSSSDDREELEELLEEIQRLLEEGDPERALELLQEALRFAFQLGDEEILQLLWELAKRVASSSSS
B13: il10ra_site1_sap_16_mot_HHH_b2_00800_af2_000000047_0001_1_20_H_._HHH_b1_01243_0001_0000600058_0000001_0_0001 (protein)
chain: SSSSSSEEREEVEELLEEAEHVDDERELAQVLVEALRFAWEGQDEEALRLVWEVVKKLLSSSSSS
B14: il10ra_site1_normal_mot_HHH_b2_02116_af2_000000165_0001_41_55_H_._HHH_b1_00240_af2_0001_0000100001_0000001_0_af2pred_0001 (protein)
chain: SSSSDEELKKEAAELFYEAARLLKEGDEEQVKELIERIEELAKEGNDHLIEAIARLLKDALSSSS
B15: il10ra_site1_sap_24_mot_HHH_b2_02053_af2_000000006_0001_3_19_H_._HHH_b2_00552_0001_0000400015_0000001_0_0001 (protein)
chain: DVEQEILRLVYQLNDPELLRLLWEVFRLLAETGDPRLEELLKEVLELLENGDPEEAEEVLKEAVK
B16: il10ra_site1_sap_14_mot_HHH_b2_01447_af2_000000258_0001_1_20_H_._HHH_b1_06879_af2_0001_0000900063_0000002_0_0001 (protein)
chain: SSSSDEEERELYELIKEIARLLIRGNPEEAKKLIEELEELAKELGDEAAEEAVEILKQAVDSSSS
B17: il10ra_site1_normal_mot_802863e75c239dc72d0ffd0be86c571b_0001_1_000000009_0001_36_49_H_._HHH_b1_03230_0001_0000300033_0000002_0 (protein)
chain: SSSSDEEFELLRRAHEELKRLLEEGNPEEAERLFEEVERELEEAGNFVAVFALRHTFRLNSSSSS
B18: il10ra_site1_sap_9_mot_HHH_b1_06789_af2_000000041_0001_1_20_H_._HHH_b1_03310_0001_0000100002_0000002_0_0001 (protein)
chain: SSSSDQEVFEAVEKAIERAIQLRREGDPEEARRLLEEAIELAEENGSRLAVLQLRWLLERLSSSS
B19: il10ra_site1_sap_22_mot_HHH_b1_02492_000000051_0001_1_21_H_._HHH_b1_01194_0001_0000200029_0000001_0_0001 (protein)
chain: SSSSSSDLYELARQLLELAFRHRDWELLHEVWRAYREAAEHDDPRLLEELLEEAEEELSSSSSSS

What follows are binders tested against il10ra, Q13651 (assay: yeast display titration).
In the case of B1, the “apparent Kd” value is reported as “inactive: no binding seen”. With B2 the “apparent Kd” value was “inactive: no binding seen”. For B3, the “apparent Kd” value was “inactive: no binding seen”. With B4 the “apparent Kd” value was “inactive: no binding seen”. With B5 the “apparent Kd” value was “inactive: no binding seen”. In the case of B6, the “apparent Kd” value is reported as “inactive: no binding seen”. For B7, the “apparent Kd” value was “inactive: no binding seen”. B8 was tested, and the apparent Kd was inactive: > 1.39 µM. In the case of B9, the “apparent Kd” value is reported as “inactive: no binding seen”. For B10, the “apparent Kd” value was “inactive: no binding seen”. In the case of B11, the “apparent Kd” value is reported as “inactive: no binding seen”. With B12 the “apparent Kd” value was “inactive: no binding seen”. B13 was tested, and the “apparent Kd” value was “inactive: no binding seen”. In the case of B14, the “apparent Kd” value is reported as “inactive: no binding seen”. B15 was tested, and the “apparent Kd” value was “inactive: no binding seen”. B16 was tested, and the “apparent Kd” value was “inactive: no binding seen”. In the case of B17, the “apparent Kd” value is reported as “inactive: no binding seen”. B18 was tested, and the “apparent Kd” value was “inactive: no binding seen”. For B19, the “apparent Kd” value was “inactive: no binding seen”.
